Assay results published in PMC8489103.
Results are given in words; binding and its absence hold for the method and conditions named. Some results given as binding are weak or reduced against the parent protein; the word gives no strength. Sequences can lack the tags named with a protein. Blank lines part the entries; values can stand above or below the binder they belong to.

Amino acid sequences for entries named in this document (tags omitted). A change or cut given only in a name is not applied to a line headed by its entry. Residues count along the entry.
UniProt P02769, residues 25-607: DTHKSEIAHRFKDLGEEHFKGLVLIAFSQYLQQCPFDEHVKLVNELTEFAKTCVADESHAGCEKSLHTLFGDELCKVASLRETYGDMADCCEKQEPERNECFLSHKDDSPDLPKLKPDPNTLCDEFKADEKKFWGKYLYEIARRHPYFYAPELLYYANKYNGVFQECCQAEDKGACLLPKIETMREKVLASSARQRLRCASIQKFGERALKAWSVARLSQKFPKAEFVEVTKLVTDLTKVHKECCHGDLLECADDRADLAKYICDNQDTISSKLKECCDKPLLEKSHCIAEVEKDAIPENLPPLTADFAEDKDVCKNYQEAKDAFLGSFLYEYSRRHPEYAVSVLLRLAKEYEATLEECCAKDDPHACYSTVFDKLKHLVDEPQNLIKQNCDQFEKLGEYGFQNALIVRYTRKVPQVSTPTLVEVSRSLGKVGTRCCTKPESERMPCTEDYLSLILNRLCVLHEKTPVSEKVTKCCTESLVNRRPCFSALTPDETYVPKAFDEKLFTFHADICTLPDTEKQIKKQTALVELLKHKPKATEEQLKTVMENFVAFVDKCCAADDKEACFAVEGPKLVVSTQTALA
UniProt P02452: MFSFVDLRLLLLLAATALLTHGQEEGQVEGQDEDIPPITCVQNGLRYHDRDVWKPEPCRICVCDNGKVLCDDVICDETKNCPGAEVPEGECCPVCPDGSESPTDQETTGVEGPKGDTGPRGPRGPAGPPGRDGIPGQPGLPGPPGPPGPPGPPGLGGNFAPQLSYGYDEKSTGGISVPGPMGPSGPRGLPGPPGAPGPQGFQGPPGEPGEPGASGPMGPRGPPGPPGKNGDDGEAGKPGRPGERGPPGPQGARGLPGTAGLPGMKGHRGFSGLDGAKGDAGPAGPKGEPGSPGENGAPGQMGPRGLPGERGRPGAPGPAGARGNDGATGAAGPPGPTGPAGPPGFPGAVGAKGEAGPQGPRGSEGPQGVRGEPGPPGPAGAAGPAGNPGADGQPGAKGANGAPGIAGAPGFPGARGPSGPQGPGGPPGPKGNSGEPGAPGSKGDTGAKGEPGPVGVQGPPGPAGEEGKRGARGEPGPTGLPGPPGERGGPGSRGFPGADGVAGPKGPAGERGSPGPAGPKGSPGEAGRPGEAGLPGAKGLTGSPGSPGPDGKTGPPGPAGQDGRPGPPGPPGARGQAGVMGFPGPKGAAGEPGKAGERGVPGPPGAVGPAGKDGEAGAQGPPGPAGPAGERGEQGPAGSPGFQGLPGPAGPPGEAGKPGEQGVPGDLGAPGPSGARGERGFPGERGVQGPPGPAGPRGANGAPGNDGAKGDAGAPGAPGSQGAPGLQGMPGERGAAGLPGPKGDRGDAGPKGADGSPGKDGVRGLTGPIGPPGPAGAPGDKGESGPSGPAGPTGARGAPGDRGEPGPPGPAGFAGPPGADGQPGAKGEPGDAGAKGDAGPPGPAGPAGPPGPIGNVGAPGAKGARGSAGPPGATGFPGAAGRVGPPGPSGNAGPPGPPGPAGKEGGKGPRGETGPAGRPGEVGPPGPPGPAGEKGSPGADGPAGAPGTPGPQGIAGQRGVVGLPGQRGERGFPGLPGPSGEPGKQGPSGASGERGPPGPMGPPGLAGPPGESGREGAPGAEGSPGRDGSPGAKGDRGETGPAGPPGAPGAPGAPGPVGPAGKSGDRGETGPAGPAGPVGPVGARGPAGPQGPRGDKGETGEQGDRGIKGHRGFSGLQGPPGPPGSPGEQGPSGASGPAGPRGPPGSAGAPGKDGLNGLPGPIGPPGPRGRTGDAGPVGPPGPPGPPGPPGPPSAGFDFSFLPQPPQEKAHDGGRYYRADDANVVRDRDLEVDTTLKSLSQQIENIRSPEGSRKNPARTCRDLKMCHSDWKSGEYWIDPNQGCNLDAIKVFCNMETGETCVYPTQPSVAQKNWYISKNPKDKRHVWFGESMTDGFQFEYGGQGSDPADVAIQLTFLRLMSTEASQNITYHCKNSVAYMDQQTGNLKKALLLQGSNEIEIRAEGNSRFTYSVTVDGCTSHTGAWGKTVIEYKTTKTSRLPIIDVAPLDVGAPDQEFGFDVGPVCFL

Key:
[1] = target: Bovine serum albumin (bovine) (UniProt P02769); experiment: ELISA; collagen-I (2 μg/mL), C1q (8 μg/mL) or BSA coated on the plate; sDDR2 (0.1, 0.5, 2, 8 μg/mL) added, 37 °C, 2 h; detected with mouse anti-DDR2; both purified
collagen-I = collagen-I (UniProt P02452); experiment: as above
DDR1-Fc = target: T1, DDR1-Fc (UniProt Q03146); experiment: far-Western, overlay or dot blot; DDR2-Fc, DDR1-Fc or Fc (20 μg per spot) blotted on nitrocellulose; biotinylated C1qA peptide (200 nM) in 3% skim milk, RT, 2 h; detected with streptavidin; both purified
T1 sequence: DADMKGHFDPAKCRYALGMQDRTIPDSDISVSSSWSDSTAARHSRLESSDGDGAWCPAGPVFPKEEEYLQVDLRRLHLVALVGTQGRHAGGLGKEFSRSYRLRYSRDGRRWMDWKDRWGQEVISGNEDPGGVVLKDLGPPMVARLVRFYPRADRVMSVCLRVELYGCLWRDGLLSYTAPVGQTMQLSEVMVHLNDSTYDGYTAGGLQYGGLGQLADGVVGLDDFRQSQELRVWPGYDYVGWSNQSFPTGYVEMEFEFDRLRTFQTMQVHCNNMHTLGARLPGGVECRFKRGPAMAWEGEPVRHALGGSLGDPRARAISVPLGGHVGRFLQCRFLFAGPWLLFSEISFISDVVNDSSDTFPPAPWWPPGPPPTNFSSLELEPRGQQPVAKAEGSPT

binding (collagen-I): binds
B1: Recombinant human DDR2 possessing the ectodomain of DDR2 (Gln24-Arg399) with 6 × His-tag on C-terminal (domain or fragment, UniProt Q16832 24-399)
chain: QVNPAICRYPLGMSGGQIPDEDITASSQWSESTAAKYGRLDSEEGDGAWCPEIPVEPDDLKEFLQIDLHTLHFITLVGTQGRHAGGHGIEFAPMYKINYSRDGTRWISWRNRHGKQVLDGNSNPYDIFLKDLEPPIVARFVRFIPVTDHSMNVCMRVELYGCVWLDGLVSYNAPAGQQFVLPGGSIIYLNDSVYDGAVGYSMTEGLGQLTDGVSGLDDFTQTHEYHVWPGYDYVGWRNESATNGYIEIMFEFDRIRNFTTMKVHCNNMFAKGVKIFKEVQCYFRSEASEWEPNAISFPLVLDDVNPSARFVTVPLHHRMASAIKCQYHFADTWMMFSEITFQSDAAMYNNSEALPTSPMAPTTYDPMLKVDDSNTR
binding [1]: no binding (tested: 0.1, 0.5, 2, and 8 μg/mL sDDR2)

binding (DDR1-Fc): binds
B2: C1qA peptide (Biotin-…) (peptide)
peptide: GSKGEQGEPGAPGI
modifications: biotin on the N-terminus
